From patent publication US20210071191A1
Results are given in words; binding and its absence hold for the method and conditions named. A result given as binding can be weak or reduced; the word gives no strength. Tags and fused reporters may be left off the sequences shown. For some of these results: Binding seen in cells or lysates may run through a third protein.

Assays:
[1] = biological target: OsGIF1 BiFC fusion (OsGIF1 tagged with the C-terminus of YFP) (rice); test: BiFC in tobacco leaf epidermal cells
[2] = biological target: OsGRF7 tagged with the N-terminus of YFP (rice); test: BiFC in tobacco leaf epidermal cells
[3] = biological target: OsGRF10 tagged with the N-terminus of YFP (rice); test: BiFC in tobacco leaf epidermal cells
[4] = biological target: OsGRF5 tagged with the N-terminus of YFP (rice); test: BiFC in tobacco leaf epidermal cells
[5] = biological target: OsGRF1 tagged with the N-terminus of YFP (rice); test: BiFC in tobacco leaf epidermal cells
[6] = biological target: OsGRF9 tagged with the N-terminus of YFP (rice); test: BiFC in tobacco leaf epidermal cells
[7] = biological target: OsGIF2 BiFC fusion (rice); test: BiFC in tobacco leaf epidermal cells
[8] = biological target: OsGRF3 tagged with the N-terminus of YFP (rice); test: BiFC in tobacco leaf epidermal cells
[9] = biological target: OsGRF11 tagged with the N-terminus of YFP (rice); test: BiFC in tobacco leaf epidermal cells
[10] = biological target: OsGRF12 tagged with the N-terminus of YFP (rice); test: BiFC in tobacco leaf epidermal cells
[11] = biological target: OsGRF8 tagged with the N-terminus of YFP (rice); test: BiFC in tobacco leaf epidermal cells
[12] = biological target: OsGRF6 tagged with the N-terminus of YFP (rice); test: BiFC in tobacco leaf epidermal cells
[13] = biological target: OsGIF3 BiFC fusion (rice); test: BiFC in tobacco leaf epidermal cells
[14] = biological target: OsGRF2 tagged with the N-terminus of YFP (rice); test: BiFC in tobacco leaf epidermal cells
HA-tagged OsGIF1 (rice) = test: Co-IP from A. thaliana protoplasts, anti-DDDDK-tag beads, anti-Flag and anti-HA immunoblot

Measured: binding

B1: nYFP-OsGRF4 (protein, not shown: large carriers)
chain: MTMPYASLSPAVADHRSSPAAATASLLPFCRSTPLSAGGGVVAMGEDAPMTARWPPAAAARLPPFTAAQYEELEQQALIYKYLVAGVPVPPDLVLPIRRGLDSLAARFYNHPALGYGPYFGKKLDPEPGRCRRTDGKKWRCSKEAAPDSKYCERHMHRGRNRSRKPVETQLVAQSQPPSSVVGSAAAPLAAASNGSSFQNHSLYPAIAGSNGGGGGRNMPSSFGSALGSQLHMDNAAPYAAVGGGTGKDLRYTAYGTRSLADEQSQLITEAINTSIENPWRLLPSQNSPFPLSSYSQLWALSDLGQNTPSSLSKVQRQPLSFFGNDYAAVDSVKQENQTLRPFFDEWPKGRDSWSDLADENANLSSFSGTQLSISIPMASSDFSAASSRSTNGD
binds: [1]

B2: cYFP-SLR1 (protein, rice, UniProt Q7G7J6 1-625, looked up, not shown: large carriers)
chain: MKREYQEAGGSSGGGSSADMGSCKDKVMAGAAGEEEDVDELLAALGYKVRSSDMADVAQKLEQLEMAMGMGGVSAPGAADDGFVSHLATDTVHYNPSDLSSWVESMLSELNAPLPPIPPAPPAARHASTSSTVTGGGGSGFFELPAAADSSSSTYALRPISLPVVATADPSAADSARDTKRMRTGGGSTSSSSSSSSSLGGGASRGSVVEAAPPATQGAAAANAPAVPVVVVDTQEAGIRLVHALLACAEAVQQENFAAAEALVKQIPTLAASQGGAMRKVAAYFGEALARRVYRFRPADSTLLDAAFADLLHAHFYESCPYLKFAHFTANQAILEAFAGCHRVHVVDFGIKQGMQWPALLQALALRPGGPPSFRLTGVGPPQPDETDALQQVGWKLAQFAHTIRVDFQYRGLVAATLADLEPFMLQPEGEADANEEPEVIAVNSVFELHRLLAQPGALEKVLGTVHAVRPRIVTVVEQEANHNSGSFLDRFTESLHYYSTMFDSLEGGSSGQAELSPPAAGGGGGTDQVMSEVYLGRQICNVVACEGAERTERHETLGQWRNRLGRAGFEPVHLGSNAYKQASTLLALFAGGDGYRVEEKEGCLTLGWHTRPLIATSAWRVAAA
binds: [2] | [1] | [3] | [4] | [5] | [6] | [7] | [8] | [9] | [10] | [11] | [12] | [13] | [14]

B3: Flag-tagged SLR1 (protein, rice, UniProt Q7G7J6 1-625, looked up, not shown: small tags and cut ends)
chain: B2 chain
binds: HA-tagged OsGIF1 (rice)
